In the assay the target is Chi23, GH18 endochitinase from Pseudoalteromonas aurantia DSM6057 (Pseudoalteromonas aurantia DSM6057). The assay can be described thus: SEC; gel filtration of recombinant Chi23 beside the size markers carbonic anhydrase (29 kDa) and ovalbumin (44 kDa); calculated monomer mass 30.4 kDa; both purified.

This passage reports binding results from publication PMC6831621, “Structural Insight Into Chitin Degradation and Thermostability of a Novel Endochitinase From the Glycoside Hydrolase Family 18” (Frontiers in Microbiology, 2019).

These are yes or no findings as the source states them, for the method shown.

B1: Chi23, GH18 endochitinase from Pseudoalteromonas aurantia DSM6057 (enzyme, UniProt A0A650AJ72 1-280)
chain: MSKTITYYNSGAVPLINASELPYDVVNLAFLSSSSNNPFNLVLSGAIAATESSFTTNTIEAIKVMQHKGQKVLISFGGGTMGSNAYRSLSEDTAKLADSLASFVKNNQLDGVDIDYEDTAAFTGQAGYDGAQFLISLTQELRKRLPSPDYIISHAPQPPYLEQGGYMAGYVEVVELVGQEIDWLNVQFYNNPPWSANPDQIVSSYLNYTKLPNMSPEKVIAGFPVTQNDAGSGYMPVQTIINEVIKPIQQQSSLGGIMNWQFSSDHNGDWIKAIAQSLNS
B1: the binding entry was “no binding”.
